# Some of the results follow.
# Columns and labels:
# Assay in all cases: glycan array binding signal (z-score within array); higher = stronger binding
# Conditions in all cases: glycan notation: IUPAC condensed, linker removed
# [1] = target: Gal(b1-3)GlcNAc(b1-2)Man(a1-3)[Gal(b1-3)GlcNAc(b1-2)Man(a1-6)]Man(b1-4)GlcNAc(b1-4)GlcNAc
# Procedure, shortened: (§1)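 The binding signal is a Z-score computed within each array. Data were drawn from 3228 arrays in the Consortium for Functional Glycomics database, restricted to those with a known protein sequence. Scores were averaged over arrays of the same protein sequence at different concentrations or buffers, and over linkers, and negative values can be taken as non-binding.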
# [2] = target: Gal(b1-3)GlcNAc(b1-2)Man(a1-3)[Gal(b1-3)GlcNAc(b1-2)Man(a1-6)]Man(b1-4)GlcNAc(b1-4)[Fuc(a1-6)]GlcNAc
# Procedure, shortened: as §1
# [3] = target: Gal(b1-3)GlcNAc(b1-2)Man(a1-3)[GlcNAc(b1-4)][Gal(b1-3)GlcNAc(b1-2)Man(a1-6)]Man(b1-4)GlcNAc(b1-4)GlcNAc
# Procedure, shortened: as §1
# [4] = target: Gal(b1-3)GlcNAc(b1-2)[Gal(b1-3)GlcNAc(b1-6)]Man(a1-6)[Gal(b1-3)GlcNAc(b1-2)Man(a1-3)]Man(b1-4)GlcNAc(b1-4)GlcNAc
# Procedure, shortened: as §1
# [5] = target: Gal(b1-3)GlcNAc(b1-3)Gal(b1-3)GlcNAc
# Procedure, shortened: as §1
# [6] = target: Gal(b1-3)GlcNAc(b1-3)Gal(b1-4)Glc
# Procedure, shortened: as §1
# [7] = target: Gal(b1-3)GlcNAc(b1-3)Gal(b1-4)GlcNAc
# Procedure, shortened: as §1
# [8] = target: Gal(b1-3)GlcNAc(b1-3)Gal(b1-4)GlcNAc(b1-2)Man(a1-3)[Gal(b1-3)GlcNAc(b1-3)Gal(b1-4)GlcNAc(b1-2)Man(a1-6)]Man(b1-4)GlcNAc(b1-4)GlcNAc
# Procedure, shortened: as §1
# [9] = target: Gal(b1-3)GlcNAc(b1-3)Gal(b1-4)GlcNAc(b1-2)[Gal(b1-3)GlcNAc(b1-3)Gal(b1-4)GlcNAc(b1-6)]Man(a1-6)[Gal(b1-3)GlcNAc(b1-3)Gal(b1-4)GlcNAc(b1-2)Man(a1-3)]Man(b1-4)GlcNAc(b1-4)[Fuc(a1-6)]GlcNAc
# Procedure, shortened: as §1
# [10] = target: Gal(b1-3)GlcNAc(b1-3)Gal(b1-4)GlcNAc(b1-3)Gal(b1-4)GlcNAc(b1-2)[Gal(b1-3)GlcNAc(b1-3)Gal(b1-4)GlcNAc(b1-3)Gal(b1-4)GlcNAc(b1-6)]Man(a1-6)[Gal(b1-3)GlcNAc(b1-3)Gal(b1-4)GlcNAc(b1-3)Gal(b1-4)GlcNAc(b1-2)Man(a1-3)]Man(b1-4)GlcNAc(b1-4)[Fuc(a1-6)]GlcNAc
# Procedure, shortened: as §1
# [11] = target: Gal(b1-3)GlcNAc(b1-3)Gal(b1-4)GlcNAc(b1-6)[Gal(b1-3)GlcNAc(b1-3)]Gal(b1-4)Glc
# Procedure, shortened: as §1
# [12] = target: Gal(b1-3)GlcNAc(b1-3)Gal(b1-4)[Fuc(a1-3)]GlcNAc
# Procedure, shortened: as §1
# [13] = target: Gal(b1-3)GlcNAc(b1-3)Gal(b1-4)[Fuc(a1-3)]GlcNAc(b1-6)[Gal(b1-3)GlcNAc(b1-3)]Gal(b1-4)Glc
# Procedure, shortened: as §1
# [14] = target: Gal(b1-3)GlcNAc(b1-3)GalNAc
# Procedure, shortened: as §1
# [15] = target: Gal(b1-3)GlcNAc(b1-6)Gal(b1-4)GlcNAc
# Procedure, shortened: as §1
# [16] = target: Gal(b1-3)GlcNAc(b1-6)GalNAc
# Procedure, shortened: as §1
# [17] = target: Gal(b1-3)GlcNAc(b1-6)[Gal(b1-3)]GalNAc
# Procedure, shortened: as §1
# [18] = target: Gal(b1-3)GlcNAc6S
# Procedure, shortened: as §1
# [19] = target: Gal(b1-3)[Fuc(a1-4)]GlcNAc
# Procedure, shortened: as §1
# [20] = target: Gal(b1-3)[Fuc(a1-4)]GlcNAc(b1-2)Man
# Procedure, shortened: as §1
# [21] = target: Gal(b1-3)[Fuc(a1-4)]GlcNAc(b1-2)Man(a1-3)[Gal(b1-3)[Fuc(a1-4)]GlcNAc(b1-2)Man(a1-6)]Man(b1-4)GlcNAc(b1-4)[Fuc(a1-6)]GlcNAc
# Procedure, shortened: as §1
# [22] = target: Gal(b1-3)[Fuc(a1-4)]GlcNAc(b1-3)Gal(b1-3)[Fuc(a1-4)]GlcNAc
# Procedure, shortened: as §1
# [23] = target: Gal(b1-3)[Fuc(a1-4)]GlcNAc(b1-3)Gal(b1-4)[Fuc(a1-3)]GlcNAc
# Procedure, shortened: as §1
# [24] = target: Gal(b1-3)[Fuc(a1-4)]GlcNAc(b1-6)GalNAc
# Procedure, shortened: as §1
# [25] = target: Gal(b1-3)[GlcNAc(b1-6)]GalNAc
# Procedure, shortened: as §1
# [26] = target: Gal(b1-3)[Neu5Ac(a2-6)]GalNAc
# Procedure, shortened: as §1
# [27] = target: Gal(b1-3)[Neu5Ac(a2-6)]GlcNAc(b1-4)Gal(b1-4)Glc
# Procedure, shortened: as §1
# [28] = target: Gal(b1-3)[Neu5Ac(b2-6)]GalNAc
# Procedure, shortened: as §1
# [29] = target: Gal(b1-4)Gal
# Procedure, shortened: as §1
# [30] = target: Gal(b1-4)GalNAc(a1-3)[Fuc(a1-2)]Gal(b1-4)GlcNAc
# Procedure, shortened: as §1
binder,measurement,setting,value
"R2-fiber (Pseudomonas aeruginosa), Q9S576 (protein) HHHHHHKVAKDLVVSLAYQVRTEDGVLVDESPVSAPLDYLHGHGSLISGLETALEGHEVGDKFDVAVGANDAYGQYDENLVQRVPKDVFMGVDELQVGMRFLAETDQGPVPVEITAVEDDHVVVDGNHMLAGQNLKFNVEVVAIREATEEELAHGHVHGAHDHHHDHDHDGCCGGHGHDHGHEHGGEGCCGGKGNGGCGCHENLYFQGVTAGMALAATDIPGLDASKLVSGVLAEQRLPVFARGLATAVSNSSDPNTATVPLMLTNHANGPVAGRYFYIQSMFYPDQNGNASQIATSYNATSEMYVRVSYAANPSIREWLPWQRCDIGGSFTKEADGELPGGVNLDSMVTSGWWSQSFTAQAASGANYPIVRAGLLHVYAASSNFIYQTYQAYDGESFYFRCRHSNTWFPWRRMWHGGDFNPSDYLLKSGFYWNALPGKPATFPPSAHNHDVGQLTSGILPLARGGVGSNTAAGARSTIGAGVPATASLGASGWWRDNDTGLIRQWGQVTCPADADASITFPIPFPTLCLGGYANQTSAFHPGTDASTGFRGATTTTAVIRNGYFAQAVLSWEAFGR",glycan array binding signal (z-score),[1],0.909
same,glycan array binding signal (z-score),[2],0.783
same,glycan array binding signal (z-score),[3],-0.395
same,glycan array binding signal (z-score),[4],-0.011
same,glycan array binding signal (z-score),[5],1.43
same,glycan array binding signal (z-score),[6],-0.113
same,glycan array binding signal (z-score),[7],-0.227
same,glycan array binding signal (z-score),[8],1.64
same,glycan array binding signal (z-score),[9],1.01
same,glycan array binding signal (z-score),[10],1.22
same,glycan array binding signal (z-score),[11],0.141
same,glycan array binding signal (z-score),[12],0.162
same,glycan array binding signal (z-score),[13],0.849
same,glycan array binding signal (z-score),[14],-0.267
same,glycan array binding signal (z-score),[15],0.467
same,glycan array binding signal (z-score),[16],-0.026
same,glycan array binding signal (z-score),[17],-0.27
same,glycan array binding signal (z-score),[18],-0.334
same,glycan array binding signal (z-score),[19],-0.653
same,glycan array binding signal (z-score),[20],-0.063
same,glycan array binding signal (z-score),[21],-0.103
same,glycan array binding signal (z-score),[22],-0.446
same,glycan array binding signal (z-score),[23],2.1
same,glycan array binding signal (z-score),[24],0.756
same,glycan array binding signal (z-score),[25],0.257
same,glycan array binding signal (z-score),[26],-0.694
same,glycan array binding signal (z-score),[27],0.133
same,glycan array binding signal (z-score),[28],-0.396
same,glycan array binding signal (z-score),[29],-0.348
same,glycan array binding signal (z-score),[30],0.096

# A run of entries taken from the entries so far, as a working copy:
binder,measurement,setting,value
"R2-fiber (Pseudomonas aeruginosa), Q9S576 (protein) HHHHHHKVAKDLVVSLAYQVRTEDGVLVDESPVSAPLDYLHGHGSLISGLETALEGHEVGDKFDVAVGANDAYGQYDENLVQRVPKDVFMGVDELQVGMRFLAETDQGPVPVEITAVEDDHVVVDGNHMLAGQNLKFNVEVVAIREATEEELAHGHVHGAHDHHHDHDHDGCCGGHGHDHGHEHGGEGCCGGKGNGGCGCHENLYFQGVTAGMALAATDIPGLDASKLVSGVLAEQRLPVFARGLATAVSNSSDPNTATVPLMLTNHANGPVAGRYFYIQSMFYPDQNGNASQIATSYNATSEMYVRVSYAANPSIREWLPWQRCDIGGSFTKEADGELPGGVNLDSMVTSGWWSQSFTAQAASGANYPIVRAGLLHVYAASSNFIYQTYQAYDGESFYFRCRHSNTWFPWRRMWHGGDFNPSDYLLKSGFYWNALPGKPATFPPSAHNHDVGQLTSGILPLARGGVGSNTAAGARSTIGAGVPATASLGASGWWRDNDTGLIRQWGQVTCPADADASITFPIPFPTLCLGGYANQTSAFHPGTDASTGFRGATTTTAVIRNGYFAQAVLSWEAFGR",glycan array binding signal (z-score),[6],-0.113
same,glycan array binding signal (z-score),[7],-0.227
